Experimental data taken from the supplement of paper PMC7666118.
The list shows a part of the results.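 How the source made its calls: active = dose-dependent thermal stabilisation significant by F-test of dose-response against flat model at 10% FDR; inactive = not significant.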

The chains behind the UniProt entries cited, without tags or fusion partners. Where a name states a change or a piece, a line headed by the entry shows the natural chain unless it says otherwise.
UniProt O95997: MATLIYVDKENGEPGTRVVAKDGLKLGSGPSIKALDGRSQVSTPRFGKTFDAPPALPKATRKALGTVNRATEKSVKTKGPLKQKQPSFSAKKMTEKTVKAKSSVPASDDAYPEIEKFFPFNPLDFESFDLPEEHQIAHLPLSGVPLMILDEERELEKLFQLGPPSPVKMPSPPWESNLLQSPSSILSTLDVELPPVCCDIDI
UniProt P49023, whole entry: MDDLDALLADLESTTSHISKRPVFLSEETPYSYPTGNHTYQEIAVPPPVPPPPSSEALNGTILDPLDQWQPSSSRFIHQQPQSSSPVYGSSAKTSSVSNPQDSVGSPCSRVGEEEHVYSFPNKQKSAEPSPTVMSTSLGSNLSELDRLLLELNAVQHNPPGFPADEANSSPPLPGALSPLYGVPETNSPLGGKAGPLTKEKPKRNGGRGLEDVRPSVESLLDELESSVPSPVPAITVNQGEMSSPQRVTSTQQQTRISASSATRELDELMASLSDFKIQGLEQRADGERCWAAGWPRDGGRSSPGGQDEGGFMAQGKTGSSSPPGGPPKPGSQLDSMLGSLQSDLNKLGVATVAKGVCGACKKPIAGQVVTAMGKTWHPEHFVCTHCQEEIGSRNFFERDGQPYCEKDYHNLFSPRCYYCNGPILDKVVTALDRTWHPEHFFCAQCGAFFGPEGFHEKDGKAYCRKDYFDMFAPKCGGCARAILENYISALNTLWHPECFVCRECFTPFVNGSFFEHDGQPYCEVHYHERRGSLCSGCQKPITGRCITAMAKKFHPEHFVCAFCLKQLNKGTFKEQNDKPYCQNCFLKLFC
UniProt Q2KHR3: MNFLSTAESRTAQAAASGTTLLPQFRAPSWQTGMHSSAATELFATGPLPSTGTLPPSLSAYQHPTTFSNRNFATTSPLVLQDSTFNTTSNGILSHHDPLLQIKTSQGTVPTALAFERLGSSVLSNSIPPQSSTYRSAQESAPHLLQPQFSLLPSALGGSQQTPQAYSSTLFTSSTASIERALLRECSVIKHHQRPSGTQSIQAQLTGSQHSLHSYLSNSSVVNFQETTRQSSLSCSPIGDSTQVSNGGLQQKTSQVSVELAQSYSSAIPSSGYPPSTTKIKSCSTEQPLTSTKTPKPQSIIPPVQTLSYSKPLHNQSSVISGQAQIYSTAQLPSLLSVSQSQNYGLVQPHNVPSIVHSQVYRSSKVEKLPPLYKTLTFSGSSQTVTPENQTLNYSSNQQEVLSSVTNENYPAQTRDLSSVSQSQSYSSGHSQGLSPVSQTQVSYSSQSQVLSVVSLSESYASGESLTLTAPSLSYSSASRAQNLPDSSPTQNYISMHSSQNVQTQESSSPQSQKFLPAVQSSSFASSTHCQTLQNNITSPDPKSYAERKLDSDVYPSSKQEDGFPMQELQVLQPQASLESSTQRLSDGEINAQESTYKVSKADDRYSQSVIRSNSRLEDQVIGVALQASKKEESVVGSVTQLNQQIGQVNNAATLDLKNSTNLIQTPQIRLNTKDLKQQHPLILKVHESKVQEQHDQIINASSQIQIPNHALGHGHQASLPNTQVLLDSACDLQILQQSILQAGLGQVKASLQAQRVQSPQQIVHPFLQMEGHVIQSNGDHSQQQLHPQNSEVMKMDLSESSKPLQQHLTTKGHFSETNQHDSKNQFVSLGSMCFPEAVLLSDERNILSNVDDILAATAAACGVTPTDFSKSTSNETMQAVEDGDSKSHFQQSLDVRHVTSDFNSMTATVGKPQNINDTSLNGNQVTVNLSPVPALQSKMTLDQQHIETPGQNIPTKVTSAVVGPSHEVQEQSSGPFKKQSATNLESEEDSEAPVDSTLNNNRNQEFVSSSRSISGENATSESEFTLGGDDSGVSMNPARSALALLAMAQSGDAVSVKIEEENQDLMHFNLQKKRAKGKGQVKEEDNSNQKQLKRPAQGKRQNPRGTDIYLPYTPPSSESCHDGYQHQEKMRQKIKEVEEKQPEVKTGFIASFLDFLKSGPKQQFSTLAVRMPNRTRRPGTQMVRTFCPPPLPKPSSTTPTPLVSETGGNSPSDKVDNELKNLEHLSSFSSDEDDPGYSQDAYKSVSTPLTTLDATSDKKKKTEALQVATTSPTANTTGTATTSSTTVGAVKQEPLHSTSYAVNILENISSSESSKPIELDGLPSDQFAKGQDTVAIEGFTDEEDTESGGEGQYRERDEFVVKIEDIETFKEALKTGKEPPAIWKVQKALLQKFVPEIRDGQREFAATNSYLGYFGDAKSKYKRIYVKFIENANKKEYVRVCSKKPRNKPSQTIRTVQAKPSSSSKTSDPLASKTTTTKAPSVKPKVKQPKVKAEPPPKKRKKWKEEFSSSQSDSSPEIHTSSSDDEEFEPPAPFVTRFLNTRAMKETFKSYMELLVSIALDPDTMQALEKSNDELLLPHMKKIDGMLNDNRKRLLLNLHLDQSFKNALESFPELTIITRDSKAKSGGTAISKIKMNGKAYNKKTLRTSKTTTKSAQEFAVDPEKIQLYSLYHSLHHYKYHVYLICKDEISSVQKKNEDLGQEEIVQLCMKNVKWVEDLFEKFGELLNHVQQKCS
UniProt Q96PM5: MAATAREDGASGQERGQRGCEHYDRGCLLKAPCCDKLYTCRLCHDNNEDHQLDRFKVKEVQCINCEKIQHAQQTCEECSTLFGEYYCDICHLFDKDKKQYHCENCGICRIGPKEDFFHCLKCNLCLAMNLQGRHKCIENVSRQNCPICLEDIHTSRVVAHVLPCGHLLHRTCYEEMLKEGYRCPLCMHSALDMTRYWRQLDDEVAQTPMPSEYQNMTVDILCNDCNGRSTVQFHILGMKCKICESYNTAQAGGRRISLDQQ
UniProt P61026: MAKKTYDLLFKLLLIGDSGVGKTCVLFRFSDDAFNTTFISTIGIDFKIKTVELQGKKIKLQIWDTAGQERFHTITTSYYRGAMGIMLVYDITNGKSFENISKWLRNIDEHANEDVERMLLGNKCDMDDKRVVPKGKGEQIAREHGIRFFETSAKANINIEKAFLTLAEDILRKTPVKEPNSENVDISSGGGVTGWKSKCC
UniProt P18031: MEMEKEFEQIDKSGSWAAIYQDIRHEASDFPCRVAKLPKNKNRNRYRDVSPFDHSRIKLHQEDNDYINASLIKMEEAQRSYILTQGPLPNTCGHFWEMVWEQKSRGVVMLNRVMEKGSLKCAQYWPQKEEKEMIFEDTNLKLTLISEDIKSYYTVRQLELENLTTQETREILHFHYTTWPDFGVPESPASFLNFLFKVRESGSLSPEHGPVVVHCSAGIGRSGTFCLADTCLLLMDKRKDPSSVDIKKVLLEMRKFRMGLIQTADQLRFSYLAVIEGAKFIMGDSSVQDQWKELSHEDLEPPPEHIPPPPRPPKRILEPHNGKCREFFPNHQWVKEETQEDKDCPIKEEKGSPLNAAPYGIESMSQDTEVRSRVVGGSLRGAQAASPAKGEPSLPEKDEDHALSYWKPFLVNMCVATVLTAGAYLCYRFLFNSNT
UniProt Q16401: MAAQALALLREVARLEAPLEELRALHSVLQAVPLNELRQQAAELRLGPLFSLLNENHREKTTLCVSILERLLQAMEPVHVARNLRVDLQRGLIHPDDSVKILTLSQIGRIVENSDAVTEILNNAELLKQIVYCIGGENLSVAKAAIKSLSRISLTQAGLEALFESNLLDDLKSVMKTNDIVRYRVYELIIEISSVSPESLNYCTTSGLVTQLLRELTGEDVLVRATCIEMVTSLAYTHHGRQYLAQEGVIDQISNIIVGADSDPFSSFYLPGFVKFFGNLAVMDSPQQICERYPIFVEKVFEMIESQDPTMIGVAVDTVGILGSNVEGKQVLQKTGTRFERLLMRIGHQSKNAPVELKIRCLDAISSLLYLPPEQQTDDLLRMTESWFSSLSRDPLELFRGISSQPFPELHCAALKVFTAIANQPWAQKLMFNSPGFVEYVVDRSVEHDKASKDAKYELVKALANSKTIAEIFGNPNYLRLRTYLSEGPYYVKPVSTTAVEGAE
UniProt Q9NP72: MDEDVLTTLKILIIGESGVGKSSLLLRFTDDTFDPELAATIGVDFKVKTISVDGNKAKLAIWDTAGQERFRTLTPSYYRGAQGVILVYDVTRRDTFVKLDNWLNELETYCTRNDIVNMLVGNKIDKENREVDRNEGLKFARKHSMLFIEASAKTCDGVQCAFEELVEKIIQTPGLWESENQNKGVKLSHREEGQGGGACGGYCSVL
UniProt Q92878: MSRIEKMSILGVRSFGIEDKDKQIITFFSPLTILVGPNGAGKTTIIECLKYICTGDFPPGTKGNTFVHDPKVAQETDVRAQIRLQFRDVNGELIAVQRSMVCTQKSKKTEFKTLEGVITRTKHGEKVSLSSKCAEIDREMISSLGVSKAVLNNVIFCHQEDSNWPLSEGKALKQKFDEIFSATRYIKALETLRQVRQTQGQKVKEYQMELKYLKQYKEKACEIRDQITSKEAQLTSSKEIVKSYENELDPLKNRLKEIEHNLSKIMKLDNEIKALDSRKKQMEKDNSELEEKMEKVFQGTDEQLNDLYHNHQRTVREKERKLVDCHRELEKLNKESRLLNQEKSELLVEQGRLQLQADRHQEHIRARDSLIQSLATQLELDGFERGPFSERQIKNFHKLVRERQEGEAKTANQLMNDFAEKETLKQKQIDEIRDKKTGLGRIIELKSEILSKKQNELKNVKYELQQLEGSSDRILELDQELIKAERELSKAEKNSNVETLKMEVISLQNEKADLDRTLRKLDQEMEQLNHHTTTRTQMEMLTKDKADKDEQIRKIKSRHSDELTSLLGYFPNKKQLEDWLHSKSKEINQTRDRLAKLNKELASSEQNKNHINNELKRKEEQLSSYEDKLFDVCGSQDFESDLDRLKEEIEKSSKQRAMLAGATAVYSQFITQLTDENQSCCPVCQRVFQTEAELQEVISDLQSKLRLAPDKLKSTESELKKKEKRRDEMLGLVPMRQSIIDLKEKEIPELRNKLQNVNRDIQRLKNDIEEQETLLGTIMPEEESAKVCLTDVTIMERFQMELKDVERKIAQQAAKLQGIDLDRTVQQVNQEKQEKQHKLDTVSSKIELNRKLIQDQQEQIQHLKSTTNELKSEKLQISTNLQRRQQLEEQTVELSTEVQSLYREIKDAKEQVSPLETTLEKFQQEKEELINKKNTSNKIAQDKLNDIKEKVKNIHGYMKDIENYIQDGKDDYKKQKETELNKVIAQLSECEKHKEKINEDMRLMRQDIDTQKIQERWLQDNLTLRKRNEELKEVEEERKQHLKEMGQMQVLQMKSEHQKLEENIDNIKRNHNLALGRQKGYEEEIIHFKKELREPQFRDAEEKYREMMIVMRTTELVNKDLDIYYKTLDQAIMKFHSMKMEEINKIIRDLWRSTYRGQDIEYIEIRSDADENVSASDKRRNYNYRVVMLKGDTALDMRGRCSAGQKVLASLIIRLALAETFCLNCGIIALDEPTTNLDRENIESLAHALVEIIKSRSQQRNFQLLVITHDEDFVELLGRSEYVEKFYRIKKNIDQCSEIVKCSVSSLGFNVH
UniProt Q969Q5: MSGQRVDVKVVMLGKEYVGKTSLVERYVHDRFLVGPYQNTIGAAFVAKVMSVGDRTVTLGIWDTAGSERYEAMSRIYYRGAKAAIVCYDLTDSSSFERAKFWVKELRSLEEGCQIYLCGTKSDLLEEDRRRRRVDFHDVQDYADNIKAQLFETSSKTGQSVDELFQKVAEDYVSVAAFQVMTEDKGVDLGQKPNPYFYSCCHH
UniProt Q9UHX1: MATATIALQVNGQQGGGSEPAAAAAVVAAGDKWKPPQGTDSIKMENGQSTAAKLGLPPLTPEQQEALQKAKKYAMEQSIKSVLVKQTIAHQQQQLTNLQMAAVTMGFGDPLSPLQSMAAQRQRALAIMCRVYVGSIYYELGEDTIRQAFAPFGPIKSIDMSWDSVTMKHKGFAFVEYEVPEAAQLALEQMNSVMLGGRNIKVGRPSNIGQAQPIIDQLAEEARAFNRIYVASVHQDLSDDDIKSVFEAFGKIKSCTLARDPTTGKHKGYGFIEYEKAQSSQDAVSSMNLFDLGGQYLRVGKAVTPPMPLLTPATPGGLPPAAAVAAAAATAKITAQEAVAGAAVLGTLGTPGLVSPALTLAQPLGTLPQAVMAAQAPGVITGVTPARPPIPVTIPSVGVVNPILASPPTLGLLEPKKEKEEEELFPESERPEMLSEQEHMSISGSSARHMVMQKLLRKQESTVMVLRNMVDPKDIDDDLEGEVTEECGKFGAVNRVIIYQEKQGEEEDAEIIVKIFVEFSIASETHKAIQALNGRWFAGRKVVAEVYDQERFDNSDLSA
UniProt Q99873, whole entry, looked up: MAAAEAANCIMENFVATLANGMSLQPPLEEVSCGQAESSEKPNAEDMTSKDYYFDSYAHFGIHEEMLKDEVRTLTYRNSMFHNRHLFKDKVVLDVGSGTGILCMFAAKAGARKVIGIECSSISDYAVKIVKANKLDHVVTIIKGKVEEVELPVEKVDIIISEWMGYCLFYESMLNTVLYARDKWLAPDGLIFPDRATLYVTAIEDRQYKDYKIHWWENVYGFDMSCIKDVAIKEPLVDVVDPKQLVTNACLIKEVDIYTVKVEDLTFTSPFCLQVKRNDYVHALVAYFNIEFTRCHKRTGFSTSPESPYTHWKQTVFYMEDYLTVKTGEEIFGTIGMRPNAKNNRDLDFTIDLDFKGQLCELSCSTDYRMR

The targets below were run with Nc1nc2c(ncn2[C@@H]2O[C@H](COP(=O)(O)OP(=O)(O)OP(=O)(O)O)[C@@H](O)[C@H]2O)c(=O)[nH]1 (assay: dose-dependent thermal stabilisation call (2D-TPP, DLPTP, 10% FDR) (binary (1 = stabilised)); higher = stabilised by the compound). Details: system: Jurkat gel-filtered lysate; concentration range 1-500 µM.
Protocol: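 2D thermal proteome profiling in gel-filtered Jurkat E6.1 lysate (2 mg/ml) treated with NaGTP (0, 1, 10, 100, 500 uM) for 10 min at room temperature, then heated 3 min at one of 12 temperatures (42-63.9 C). Soluble protein was quantified by TMT10 MS. The value is the DLPTP call of the paper: dose-dependent thermal stabilisation over all temperatures at 10% FDR (F-test of a dose-response against a flat model); one experiment, one call per tested protein.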
For PYCR3 (UniProt Q53H96), the “dose-dependent thermal stabilisation call” value was inactive: 0.
In the case of PTTG1 (UniProt O95997), the “dose-dependent thermal stabilisation call” value is reported as inactive: 0.
PXN (UniProt P49023) was tested, and the “dose-dependent thermal stabilisation call” value was inactive: 0.
QSER1 (UniProt Q2KHR3) was tested, and the “dose-dependent thermal stabilisation call” value was inactive: 0.
In the case of RCHY1 (UniProt Q96PM5), the “dose-dependent thermal stabilisation call” value is reported as inactive: 0.
For PRKAR1A (UniProt P10644), the “dose-dependent thermal stabilisation call” value was active: 1.
With RAB7A (UniProt P51149) the “dose-dependent thermal stabilisation call” value was active: 1.
For PROSC (UniProt O94903), the “dose-dependent thermal stabilisation call” value was inactive: 0.
In the case of RAB9A (UniProt P51151), the “dose-dependent thermal stabilisation call” value is reported as inactive: 0.
In the case of RAP1GAP (UniProt P47736), the “dose-dependent thermal stabilisation call” value is reported as inactive: 0.
With RAB10 (UniProt P61026) the “dose-dependent thermal stabilisation call” value was active: 1.
PSMB1 (UniProt P20618) was tested, and the “dose-dependent thermal stabilisation call” value was inactive: 0.
For PSMB8 (UniProt P28062), the “dose-dependent thermal stabilisation call” value was inactive: 0.
R3HDM2 (UniProt Q9Y2K5) was tested, and the “dose-dependent thermal stabilisation call” value was inactive: 0.
With RBBP5 (UniProt Q15291) the “dose-dependent thermal stabilisation call” value was inactive: 0.
PTPN1 (UniProt P18031) was tested, and the “dose-dependent thermal stabilisation call” value was inactive: 0.
With RACK1 (UniProt P63244) the “dose-dependent thermal stabilisation call” value was inactive: 0.
In the case of RAC3 (UniProt P60763), the “dose-dependent thermal stabilisation call” value is reported as inactive: 0.
In the case of PSMD5 (UniProt Q16401), the “dose-dependent thermal stabilisation call” value is reported as inactive: 0.
In the case of RAB18 (UniProt Q9NP72), the “dose-dependent thermal stabilisation call” value is reported as active: 1.
For RAD50 (UniProt Q92878), the “dose-dependent thermal stabilisation call” value was active: 1.
For RAB11B (UniProt Q15907), the “dose-dependent thermal stabilisation call” value was active: 1.
For RACGAP1 (UniProt Q9H0H5), the “dose-dependent thermal stabilisation call” value was active: 1.
With PSMD8 (UniProt P48556) the “dose-dependent thermal stabilisation call” value was inactive: 0.
PSMD10 (UniProt O75832) was tested, and the “dose-dependent thermal stabilisation call” value was inactive: 0.
In the case of PTGES2 (UniProt Q9H7Z7), the “dose-dependent thermal stabilisation call” value is reported as inactive: 0.
RAB35 (UniProt Q15286) was tested, and the “dose-dependent thermal stabilisation call” value was active: 1.
RAB24 (UniProt Q969Q5) was tested, and the “dose-dependent thermal stabilisation call” value was inactive: 0.
For RBM22 (UniProt Q9NW64), the “dose-dependent thermal stabilisation call” value was inactive: 0.
With RBM15 (UniProt Q96T37) the “dose-dependent thermal stabilisation call” value was inactive: 0.
For PURA (UniProt Q00577), the “dose-dependent thermal stabilisation call” value was inactive: 0.
RCN2 (UniProt Q14257) was tested, and the “dose-dependent thermal stabilisation call” value was inactive: 0.
PUF60 (UniProt Q9UHX1) was tested, and the “dose-dependent thermal stabilisation call” value was inactive: 0.
In the case of RBMX (UniProt P38159), the “dose-dependent thermal stabilisation call” value is reported as inactive: 0.
RBSN (UniProt Q9H1K0) was tested, and the “dose-dependent thermal stabilisation call” value was inactive: 0.
With PYM1 (UniProt Q9BRP8) the “dose-dependent thermal stabilisation call” value was inactive: 0.
For RBMS1 (UniProt P29558), the “dose-dependent thermal stabilisation call” value was active: 1.
PYGO2 (UniProt Q9BRQ0) was tested, and the “dose-dependent thermal stabilisation call” value was inactive: 0.
For PYROXD1 (UniProt Q8WU10), the “dose-dependent thermal stabilisation call” value was inactive: 0.
PRMT1 (UniProt Q99873) was tested, and the “dose-dependent thermal stabilisation call” value was inactive: 0.
